# Data: US11692011B2, “Hepatitis B virus-derived polypeptide and anti-viral use thereof” (priority 2018, dated 2023)
# Part of at least one peptide drawing is inferred or uncertain, most often the ends. No end group written: not given here.
# Columns and labels:
# [1] = tested on: mitochondrial reactive oxygen species (mtROS); experiment: Mitochondrial reactive oxygen species (MitoSox, flow cytometry) in HepG2 cells; assay type: cell-based, human
# Procedure: After culturing the cells for an appropriate time, the cells were incubated with 5 μM of MitoSox (Molecular probes) at 37° C. for 30 min. For flow cytometry, cell pellets were re-suspended in FACS buffer (1% FBS and 1 mM EDTA in PBS) and fixed with 4% paraformaldehyde. To prevent mitochondrial dysfunction, 10 μM of MitoTempo (SigmaAldrich) was pretreated for 12 hr, and 0.5 μM of rotenone (SigmaAldrich) reagent was used as a positive control for ROS induction through mitochondrial stress.
# [2] = tested on: interferon sensitive response element (ISRE); experiment: IFN-I bioassay, luciferase reporter in hMH55-293-ISRE cells; assay type: cell-based; settings: supernatant of treated cells, 24 hr
# [3] = tested on: IFN-I; experiment: IFN-I related mRNA levels in HepG2-2.15 cells; assay type: cell-based, human; settings: compared with PBS group
# From the text: IFN-I is induced by host cells to regulate viral infection (Stetson & Medzhitov, 2006). Therefore, to examine the effect of Poly6 on IFN-I production in HepG2-2.15 cells and mouse liver, mRNA levels of IFN-β, RIG-I, and ISG15 were examined.
# In addition, to measure IFN levels by indirectly using a luciferase reporter gene for IFN-I bioassay and neutralization analysis, hMH55-293-ISRE cells was used, into which interferon sensitive response element (ISRE) associated with the luciferase reporter gene was inserted at the 3′-end using 5 μg of puromycin (Sigma Aldrich). After collecting supernatants from cells treated with each reagent for 24 hr or 48 hr, the supernatants were added to hMH55-293-ISRE cells for 6 hr. After incubation, cells were washed with PBS, and lysed with a reporter lysis buffer (E1500, Promega) at room temperature for 30 min. A luciferase assay reagent (E1500, Promega) was added and luminescence was measured using a TECAN m200 reader (TECAN).
# Through the combination treatment of entecavir, which is currently used as an HBV anti-viral agent having a mechanism whereby activity of HBV polymerase in the nucleus is inhibited and converted to a phosphorylated form, and Poly6, which was confirmed to increase IFN-I, its anti-HBV effect and synergistic effect of IFN-I increase were examined. HepG2-2.15 cells were incubated at a density of 5×10^5 cells/well on a 6-well culture plate for 24 hr, and treated with PBS, ETV, or Poly6 alone or in combination of two substances. After incubating the cells for 48 hr, supernatants were collected, and subjected to ELISA, qPCR, and LDH assay.
# Meanwhile, to examine a synergistic effect of the combination treatment of two substances with respect to the increase level of IFN-I, mRNAs of single treatment groups and combination treatment groups were extracted, and IFN-α, IFN-β, and TNF-α expression levels were observed. […] In addition, IFN levels were indirectly measured using a luciferase reporter gene of hMH55-293-ISRE cell.
substance,measurement,setting,value
"GRLVFQ [Poly6, GRLVFQ]",increase in mitochondrial reactive oxygen species according to concentration,[1],showed concentration dependence
same,production of reactive oxygen species (mtROS) by mitochondrial stress,"[1]; HepG2 cells, 2 hr to 24 hr, compared with PBS, rotenone 0.5 μM",significantly increased
same,luciferase expression level,[2],significantly increased
same,mRNA level of IFN-β,[3],significantly increased
same,mRNA level of ISG15,[3],significantly increased
same,mRNA level of RIG-I,[3],significantly increased
